From patent US20030162221A1
Results are given in words; binding and its absence hold for the method and conditions named. In cells and extracts the contact can be indirect. Some binding calls cover weakened binding; strength is not graded here. For some assays here: Tags and fused reporters may be left off the sequences shown.

The chains behind the UniProt entries cited, without tags or fusion partners.
UniProt P38903: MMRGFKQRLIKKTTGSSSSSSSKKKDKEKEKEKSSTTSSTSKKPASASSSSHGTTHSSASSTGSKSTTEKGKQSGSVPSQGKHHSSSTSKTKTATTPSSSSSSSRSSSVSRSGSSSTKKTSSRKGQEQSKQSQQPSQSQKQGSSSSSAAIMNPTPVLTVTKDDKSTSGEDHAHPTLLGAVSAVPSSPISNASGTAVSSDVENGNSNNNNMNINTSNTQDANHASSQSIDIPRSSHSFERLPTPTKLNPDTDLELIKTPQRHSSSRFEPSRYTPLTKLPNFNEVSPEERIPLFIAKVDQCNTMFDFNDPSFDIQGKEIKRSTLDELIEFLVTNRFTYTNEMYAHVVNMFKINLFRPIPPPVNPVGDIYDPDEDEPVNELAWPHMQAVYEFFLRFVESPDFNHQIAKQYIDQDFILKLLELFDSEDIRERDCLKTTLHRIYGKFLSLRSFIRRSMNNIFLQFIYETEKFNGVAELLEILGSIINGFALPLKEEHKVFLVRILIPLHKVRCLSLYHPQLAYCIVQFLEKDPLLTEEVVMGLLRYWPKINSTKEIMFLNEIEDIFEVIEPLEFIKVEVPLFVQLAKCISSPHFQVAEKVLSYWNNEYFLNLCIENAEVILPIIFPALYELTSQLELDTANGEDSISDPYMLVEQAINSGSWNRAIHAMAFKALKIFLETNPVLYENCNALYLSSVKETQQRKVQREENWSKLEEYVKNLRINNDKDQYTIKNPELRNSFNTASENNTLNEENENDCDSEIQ
UniProt P23594: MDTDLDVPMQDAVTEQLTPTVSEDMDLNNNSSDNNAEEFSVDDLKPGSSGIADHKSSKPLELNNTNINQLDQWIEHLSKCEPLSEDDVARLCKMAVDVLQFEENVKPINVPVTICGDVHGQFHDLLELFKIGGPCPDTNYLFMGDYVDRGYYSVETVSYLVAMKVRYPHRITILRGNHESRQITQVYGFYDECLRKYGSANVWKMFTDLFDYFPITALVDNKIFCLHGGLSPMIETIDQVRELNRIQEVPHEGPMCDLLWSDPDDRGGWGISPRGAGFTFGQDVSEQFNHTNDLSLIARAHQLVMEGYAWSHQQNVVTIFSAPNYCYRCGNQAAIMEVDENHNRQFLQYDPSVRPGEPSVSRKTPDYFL
UniProt P23595: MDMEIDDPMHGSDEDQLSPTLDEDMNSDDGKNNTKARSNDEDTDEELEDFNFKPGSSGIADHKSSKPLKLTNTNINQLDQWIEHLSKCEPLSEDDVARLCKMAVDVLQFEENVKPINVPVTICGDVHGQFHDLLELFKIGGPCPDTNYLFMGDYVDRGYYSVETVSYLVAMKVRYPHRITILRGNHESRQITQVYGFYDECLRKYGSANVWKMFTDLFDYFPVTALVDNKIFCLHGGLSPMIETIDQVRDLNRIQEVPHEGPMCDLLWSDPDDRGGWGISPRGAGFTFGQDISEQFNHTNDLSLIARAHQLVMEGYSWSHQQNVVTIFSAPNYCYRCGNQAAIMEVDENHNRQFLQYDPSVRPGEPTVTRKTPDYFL

Legend:
[1] = target: T1, Cdc55 (Saccharomyces cerevisiae) (UniProt Q00362); experiment: anti-FLAG co-IP, LC-MS/MS; pair by Table 2 (bait Cdc55)
T1 sequence (looked up): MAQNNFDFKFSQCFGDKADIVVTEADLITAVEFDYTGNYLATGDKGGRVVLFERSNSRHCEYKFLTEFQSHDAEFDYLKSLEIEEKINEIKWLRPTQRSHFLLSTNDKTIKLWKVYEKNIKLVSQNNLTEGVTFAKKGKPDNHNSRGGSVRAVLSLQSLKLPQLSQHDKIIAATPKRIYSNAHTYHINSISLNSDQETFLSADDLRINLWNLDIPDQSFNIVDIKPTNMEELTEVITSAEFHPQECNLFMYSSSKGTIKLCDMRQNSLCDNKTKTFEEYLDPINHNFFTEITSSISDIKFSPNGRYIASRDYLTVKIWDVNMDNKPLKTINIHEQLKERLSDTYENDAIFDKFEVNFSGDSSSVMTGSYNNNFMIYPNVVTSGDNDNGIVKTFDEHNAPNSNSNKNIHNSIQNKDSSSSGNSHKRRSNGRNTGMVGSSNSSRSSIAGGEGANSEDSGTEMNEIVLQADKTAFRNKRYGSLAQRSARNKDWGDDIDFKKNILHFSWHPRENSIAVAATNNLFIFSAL

[2] = target: Rts1 (Saccharomyces cerevisiae) (UniProt P38903); experiment: anti-FLAG co-IP, LC-MS/MS; pair by Table 2
[3] = target: T2, Tap42 (Saccharomyces cerevisiae) (UniProt Q04372); experiment: anti-FLAG co-IP, LC-MS/MS; pair by Table 2
T2 sequence (looked up): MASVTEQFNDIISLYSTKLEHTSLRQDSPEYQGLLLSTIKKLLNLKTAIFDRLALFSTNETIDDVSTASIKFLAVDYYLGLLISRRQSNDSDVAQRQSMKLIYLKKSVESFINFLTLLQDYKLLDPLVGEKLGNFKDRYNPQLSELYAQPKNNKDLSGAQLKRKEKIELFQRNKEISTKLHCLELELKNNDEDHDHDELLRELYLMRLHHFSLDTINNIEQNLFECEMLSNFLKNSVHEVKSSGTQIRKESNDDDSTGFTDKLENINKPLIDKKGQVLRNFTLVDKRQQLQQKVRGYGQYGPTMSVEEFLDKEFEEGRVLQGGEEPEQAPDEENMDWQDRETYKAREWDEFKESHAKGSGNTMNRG

[4] = target: T3, Tpd3 (Saccharomyces cerevisiae) (UniProt P31383); experiment: anti-FLAG co-IP, LC-MS/MS; pair by Table 2
T3 sequence (looked up): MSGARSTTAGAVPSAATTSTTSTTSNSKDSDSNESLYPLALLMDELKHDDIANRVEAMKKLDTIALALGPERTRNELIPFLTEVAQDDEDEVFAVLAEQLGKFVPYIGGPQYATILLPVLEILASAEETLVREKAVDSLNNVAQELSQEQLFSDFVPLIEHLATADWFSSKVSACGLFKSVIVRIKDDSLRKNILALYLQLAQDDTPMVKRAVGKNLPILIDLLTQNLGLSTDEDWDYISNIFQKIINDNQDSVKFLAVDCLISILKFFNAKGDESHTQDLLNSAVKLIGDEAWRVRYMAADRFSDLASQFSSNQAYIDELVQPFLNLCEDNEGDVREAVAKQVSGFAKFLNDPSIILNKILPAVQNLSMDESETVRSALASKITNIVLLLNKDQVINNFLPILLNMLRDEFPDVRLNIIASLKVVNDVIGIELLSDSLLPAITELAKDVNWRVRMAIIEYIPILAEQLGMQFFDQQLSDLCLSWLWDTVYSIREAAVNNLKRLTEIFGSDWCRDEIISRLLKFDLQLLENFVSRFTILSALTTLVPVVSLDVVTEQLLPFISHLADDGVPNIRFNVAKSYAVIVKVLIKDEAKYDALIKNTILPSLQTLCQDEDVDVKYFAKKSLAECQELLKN

[5] = target: Rts1 (Saccharomyces cerevisiae) (UniProt P38903); experiment: anti-FLAG co-IP, LC-MS/MS
[6] = target: T2, Tap42 (Saccharomyces cerevisiae); experiment: anti-FLAG co-IP, LC-MS/MS
[7] = target: T3, Tpd3 (Saccharomyces cerevisiae); experiment: anti-FLAG co-IP, LC-MS/MS
[8] = target: T4, Ygr161c (Saccharomyces cerevisiae) (UniProt P53289); experiment: anti-FLAG co-IP, LC-MS/MS
T4 sequence (looked up): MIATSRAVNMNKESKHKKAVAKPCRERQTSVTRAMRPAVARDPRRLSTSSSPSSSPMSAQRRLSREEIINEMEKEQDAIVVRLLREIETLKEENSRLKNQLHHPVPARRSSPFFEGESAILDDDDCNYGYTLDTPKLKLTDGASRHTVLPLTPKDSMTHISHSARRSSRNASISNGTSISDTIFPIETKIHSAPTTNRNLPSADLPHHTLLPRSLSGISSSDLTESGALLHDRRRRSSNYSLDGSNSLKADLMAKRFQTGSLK

[9] = target: T1, Cdc55 (Saccharomyces cerevisiae); experiment: anti-FLAG co-IP, LC-MS/MS; pair by Table 2
[10] = target: T1, Cdc55 (Saccharomyces cerevisiae); experiment: anti-FLAG co-IP, LC-MS/MS

Measured: binding

Pph21 (from UniProt P23594 1-369)
not listed: [9] | [10]
binds: all other assays above

Pph22 (from UniProt P23595 1-377)
not listed: [1]
binds: all other assays above
